Data from PubChem BioAssay AID652054 (National Center for Advancing Translational Sciences (NCATS), 2013).
“And” between values parts separate entries of the source, which are not always exact repeats. Identical values can stand only once. In all, about 360,000 compounds went through this assay and about 9,100 (2.5%) were called active. This list was built around the results that the source calls inconclusive (neither active nor inactive); the mix of calls is not that of the screen. No stated cut-off is given here; in the data, active means max response below about -50%; inconclusive means no clear call, values can overlap the other calls; inactive means above that.
On the % scale 0 is the no-effect control and ±100 the full control effect.

By UniProt entry, the sequences of proteins in these tests, tags left out.
UniProt P35462, whole entry, looked up: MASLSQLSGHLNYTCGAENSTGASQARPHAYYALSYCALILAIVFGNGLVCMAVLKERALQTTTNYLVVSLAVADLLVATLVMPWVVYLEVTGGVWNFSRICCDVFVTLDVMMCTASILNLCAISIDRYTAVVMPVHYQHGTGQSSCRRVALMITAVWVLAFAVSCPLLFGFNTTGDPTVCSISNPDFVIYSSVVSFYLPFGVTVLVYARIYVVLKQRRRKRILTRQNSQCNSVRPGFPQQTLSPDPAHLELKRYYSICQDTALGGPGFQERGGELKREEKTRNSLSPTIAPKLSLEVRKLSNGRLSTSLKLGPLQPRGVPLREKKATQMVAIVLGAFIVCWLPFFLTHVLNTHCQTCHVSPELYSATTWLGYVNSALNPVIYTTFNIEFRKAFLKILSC

The compounds below were run against D(3) dopamine receptor (Homo sapiens) (UniProt P35462) (assay: qHTS of D3 Dopamine Receptor Antagonist: qHTS). Settings: D3R cells, DiscoveRx beta-arrestin luminescence, antagonist mode; hits give low values.
Summary of the method: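 Cells expressing the human receptor were seeded at 1500 cells/well, incubated overnight at 37 degrees C in 5% CO2, then exposed to library compounds with dopamine controls for 90 minutes at 37 degrees C before luminescent detection.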
For `Cc1cc(O)c(CN2CCN(c3ccccc3)CC2)cc1C`, the max response, negative = inhibition was active: -64.8%. With `CCNC(=O)C1OC(n2cnc3c(N)ncnc32)C(O)C1O` (stereo not drawn) the max response, negative = inhibition was inactive: 0%. In the case of `C[C@]12C[C@@H](O)[C@H](O)CC1=CCC1C2CC[C@]2(C)C(=O)CCC12` (stereo partly drawn), the max response, negative = inhibition is reported as inactive: 15.4%. With `Cc1ccc(CN2CCCC(C(=O)c3cccc(C(F)(F)F)c3)C2)o1` (stereo not drawn) the max response, negative = inhibition was inconclusive: -38.4%. In the case of `O=c1c2ccccc2nc(-c2ccco2)n1-c1ccc(Br)cn1`, the max response, negative = inhibition is reported as inconclusive: -32.3%. In the case of `COc1ccc(-n2nnnc2C(c2cccc(OC)c2OC)N2CCC(n3c(=O)[nH]c4ccccc43)CC2)cc1` (stereo not drawn), the max response, negative = inhibition is reported as inactive: 18.4%. `COC(=O)C1=C(c2ccc(OC)c(OC)c2)C[C@@H]2CC[C@H]1N2C(=O)NCc1ccc(F)cc1` was tested, and the max response, negative = inhibition was inconclusive: -34%. `O=C1NC(=O)C(=Cc2ccc(N3CCOCC3)o2)C(=O)N1` was tested, and the max response, negative = inhibition was inconclusive: -33.8%. In the case of `CCC(=NCCN1CCCCC1)c1c(O)n(C)c(=O)n(C)c1=O`, the max response, negative = inhibition is reported as inactive: -13.1%. For `CCCCCCN1CCN(c2ccc(Cl)cc2)CC1`, the max response, negative = inhibition was inconclusive: -44.9%. For `CN(c1ccc(O)cc1)c1ccc([N+](=O)[O-])c2nonc12`, the max response, negative = inhibition was inconclusive: -34.6%. In the case of `Cc1ccsc1C(=O)C1CCCN(Cc2cccc(OCCO)c2)C1` (stereo not drawn), the max response, negative = inhibition is reported as inconclusive: -32.7%. With `CC(C)CN1CCN(Cc2ccc(F)cc2Cl)CC1CCO` (stereo not drawn) the max response, negative = inhibition was inconclusive: -31.6%. In the case of `COC(=O)C1=C(c2cccc(OCc3ccccc3)c2)C[C@@H]2CC[C@H]1N2C(=O)NCc1ccc(Br)cc1`, the max response, negative = inhibition is reported as inconclusive: -35.3%. For `O=C(CNC(=O)c1ccccc1Cl)Nc1ccc(Br)cc1C(=O)c1ccccc1`, the max response, negative = inhibition was inactive: -4.89%. With `CC(=O)O[C@@]12CO[C@@H]1C[C@@H](O)[C@@]1(C)C(=O)[C@H](O)C3=C(C)[C@@H](OC(=O)[C@H](O)[C@@H](NC(=O)c4ccccc4)c4ccccc4)C[C@@](O)([C@@H](OC(=O)c4ccccc4)C12)C3(C)C` (stereo partly drawn) the max response, negative = inhibition was inconclusive: -41.9%. In the case of `Nc1nonc1C(=O)N/N=C/c1ccc([N+](=O)[O-])o1`, the max response, negative = inhibition is reported as inconclusive: -33.1%. For `COc1cc(CN2CCN(c3cc(C)ccc3C)CC2)ccc1O`, the max response, negative = inhibition was inconclusive: -47.6%. `COc1ccc(CCNCc2ccc(SC)cc2)cc1` was tested, and the max response, negative = inhibition was active: -52.6%. For `COc1ccccc1OCC(=O)N1CCCC(N2CCN(c3ccc(F)cc3)CC2)C1` (stereo not drawn), the max response, negative = inhibition was inconclusive: -37.2%. In the case of `CC1=CC2/C=C(\C)CCC(O)C(O)/C=C/C(=O)C23C(=O)NC(CC(C)C)C3C1C` (stereo not drawn), the max response, negative = inhibition is reported as active: -73.9%. For `CC(C)C[C@H]1COc2cc(N3CCN(C)CC3)ccc2S(=O)(=O)N1`, the max response, negative = inhibition was inconclusive: -34.6%. In the case of `O=c1[nH]c2ccccc2n1C1CCN(C(CCc2ccccc2)c2nnnn2-c2ccc3c(c2)OCCO3)CC1` (stereo not drawn), the max response, negative = inhibition is reported as inactive: 97.7%. `O=C(c1cccc(N2CCCC2=O)c1)N1CCC2(CC1)OCCO2` was tested, and the max response, negative = inhibition was inconclusive: -38.2%. `CC1CCCCN1C(=O)c1ccc(N2CC3CC(C2)c2cccc(=O)n2C3)c([N+](=O)[O-])c1` (stereo not drawn) was tested, and the max response, negative = inhibition was inconclusive: -33.9%. In the case of `COc1ccc(NC(=O)CN2CC=C(c3ccccc3)CC2)cc1S(=O)(=O)N1CCOCC1`, the max response, negative = inhibition is reported as inconclusive: -49.7%. In the case of `CCOC(=O)[C@]1(C#N)[C@@H]2C=CC(C(C)=O)=CN2[C@@H](C(N)=O)[C@@H]1c1ccsc1`, the max response, negative = inhibition is reported as inconclusive: -42.1%. For `CC(C)Oc1cccnc1N(C)C1CCN(Cc2ccccc2)CC1`, the max response, negative = inhibition was active: -95.4%. In the case of `CC1=C(N2CC2)C(=O)C(CO)=C(N2CC2)C1=O`, the max response, negative = inhibition is reported as active: -95.6%. `O=[N+]([O-])c1cccc(CN2CC=C(c3ccc(F)cc3)CC2)c1` was tested, and the max response, negative = inhibition was active: -98.8%. In the case of `c1ccc(-c2[nH]c(-c3ccccc3)[n+](CC3CO3)c2-c2ccccc2)cc1` (stereo not drawn), the max response, negative = inhibition is reported as inconclusive: -42.5%. With `CCOC(C(=O)OCC(O)CN(CC)CC)(c1ccccc1)c1ccccc1` (stereo not drawn) the max response, negative = inhibition was active: -59.7%. With `CCCCN(Cc1ccccc1)C1CCN(CCc2ccccc2)CC1` the max response, negative = inhibition was inconclusive: -33.7%. In the case of `O=C(Cc1c(Cl)cccc1Cl)N1CCN(Cc2ccccc2)CC1`, the max response, negative = inhibition is reported as active: -50.8%. In the case of `COc1ccc(CN2CC=C(c3ccc(F)cc3)CC2)cc1Br`, the max response, negative = inhibition is reported as active: -68.1%. For `CCC(C(=O)N1CCC2(CC1)OCCO2)n1c2ccccc2c2nc(=O)cc(C)n21` (stereo not drawn), the max response, negative = inhibition was inconclusive: -45.7%. For `Cc1ccc(-[n+]2c(Cc3nn(-c4ccccc4)c(C)[n+]3-c3ccc(C)cc3)nn(-c3ccccc3)c2C)cc1`, the max response, negative = inhibition was inconclusive: -30.1%. `COc1ccccc1CC1/C(=N/O)C2CCN1CC2` (stereo not drawn) was tested, and the max response, negative = inhibition was inactive: 23.6%. `CCCC(=O)NC1=C(N2CC2)C(=O)C(NC(=O)CCC)=C(N2CC2)C1=O` was tested, and the max response, negative = inhibition was inconclusive: -42.2%. For `Cc1cc(C)c(C(=O)CN2CCOCC2)c(C)c1`, the max response, negative = inhibition was inactive: -24.2%. With `OC(COCc1ccc(Cl)cc1)CN1CC=C(c2ccccc2)CC1` (stereo not drawn) the max response, negative = inhibition was inconclusive: -47.4% and inconclusive: -39.3%. `ClC(Cl)=C(c1ccc(Cl)cc1)c1ccc(Cl)cc1` was tested, and the max response, negative = inhibition was inconclusive: -36.3%. In the case of `CCC(=O)Nc1ccccc1`, the max response, negative = inhibition is reported as inactive: 14.8%. In the case of `O=C1CN=C(c2cc([N+](=O)[O-])ccc2Cl)c2cc([N+](=O)[O-])ccc2N1`, the max response, negative = inhibition is reported as inactive: 2.45%. In the case of `O=P(/C(=N/O)N1CCOCC1)(N1CCOCC1)N1CCOCC1`, the max response, negative = inhibition is reported as inconclusive: -41.6%. For `CCOP(=O)(CCP(=O)(OCC)OCC)OCC.C[CH2][Sn]([Cl])([Cl])[CH2]C`, the max response, negative = inhibition was inconclusive: -47%. `COc1ccc(C(=O)OCC2CN2c2cccc([N+](=O)[O-])c2)cc1` (stereo not drawn) was tested, and the max response, negative = inhibition was inactive: 1.5%. `O=C1NC(=O)C2(Cc3c(nc4ccccn4c3=O)N3CCCCCC32)C(=O)N1Cc1ccccc1` (stereo not drawn) was tested, and the max response, negative = inhibition was inactive: 8.14%. For `COc1cccc(-n2c(O)c(C=NCCN3CCNCC3)c(=O)[nH]c2=S)c1`, the max response, negative = inhibition was inactive: -7.72%. With `COc1ccccc1N=Nc1c(O)[nH]c(=S)[nH]c1=O` the max response, negative = inhibition was inconclusive: -42%. In the case of `Cc1cccc(N2C(=O)/C(=C/c3ccc(CN(CCC#N)S(C)(=O)=O)o3)C(=O)NC2=S)c1`, the max response, negative = inhibition is reported as inconclusive: -49.9%. `CCNCCNc1ccc([N+](=O)[O-])c2cccnc12` was tested, and the max response, negative = inhibition was inconclusive: -38.5%. With `COc1ccc(C(=O)C2CCCN(C3CSCCSC3)C2)cc1OC` (stereo not drawn) the max response, negative = inhibition was inactive: -24.8%.
